Data source: PubChem BioAssay AID686938 (Drosophila RNAi Screening Center, 2013)
The deposit covers about 23,000 reagents; below is a random part of those that have a named target and a result. In the full data, 75 (0.33%) were called active. 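Raw plate signals without normalisation; calls rest on plate z-scores that were not deposited; ratio present for only 364 wells.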 A number with no mark means an inactive call. A plus sign joins genes that one reagent is predicted to hit. The record does not give: the dose of the treatment.

Screen: 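Knock-downs reducing store-operated calcium influx in Drosophila cells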 (primary screen)
Cells: Drosophila S2R+ cells
Reagent: long dsRNA against Drosophila genes, about 0.25 µg dsRNA per well, roughly 10,000 cells
Time to read-out: 5 days of knock-down before the calcium assay
Conditions: thapsigargin (SERCA pump blocker) to empty calcium stores; entry signal taken 4 min after adding it
Read-out: 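Duplicate raw fluo-4 intensities per well from a plate reader, at rest and four minutes after thapsigargin emptied calcium stores; entry-to-rest ratio filled for only some wells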
Scale: calcium entry signal: higher = stronger calcium signal after store depletion; resting calcium signal: higher = higher resting calcium signal
Call rule: 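Hit if the duplicate-averaged plate z-score for entry over resting signal is under −3; wells with weak total dye signal (Fmax z < −2) or more than 5 off-targets removed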
Calls: active = strongly reduced calcium entry; inactive = no strong reduction

Depletion of Vsx1 [DRSC18349] came out at: calcium entry signal, replicate 1 (fluorescence units) = 2.36e7; calcium entry signal, replicate 2 (fluorescence units) = 3.70e7; resting calcium signal, replicate 1 (fluorescence units) = 1.22e7; resting calcium signal, replicate 2 (fluorescence units) = 2.19e7.
Vsx1 [DRSC18350] showed calcium entry signal, replicate 1 (fluorescence units) = 2.02e7; calcium entry signal, replicate 2 (fluorescence units) = 2.93e7; resting calcium signal, replicate 1 (fluorescence units) = 1.11e7; resting calcium signal, replicate 2 (fluorescence units) = 1.57e7.
Against Vsx1 [DRSC23004] the deposit lists calcium entry signal, replicate 1 (fluorescence units) = 4.11e7; calcium entry signal, replicate 2 (fluorescence units) = 3.83e7; resting calcium signal, replicate 1 (fluorescence units) = 1.68e7; resting calcium signal, replicate 2 (fluorescence units) = 1.53e7.
After knock-down of Idi [DRSC15918] the results were calcium entry signal, replicate 1 (fluorescence units) = 4.62e7; calcium entry signal, replicate 2 (fluorescence units) = 3.85e7; resting calcium signal, replicate 1 (fluorescence units) = 2.07e7; resting calcium signal, replicate 2 (fluorescence units) = 1.75e7.
CG4045 [DRSC18518] scored calcium entry signal, replicate 1 (fluorescence units) = 3.89e7; calcium entry signal, replicate 2 (fluorescence units) = 4.34e7; resting calcium signal, replicate 1 (fluorescence units) = 1.74e7; resting calcium signal, replicate 2 (fluorescence units) = 2.09e7.
Silencing of Cpr65Ax2 + Cpr65Ax1 [DRSC10341] gave: calcium entry signal, replicate 1 (fluorescence units) = 2.84e7; calcium entry signal, replicate 2 (fluorescence units) = 4.62e7; resting calcium signal, replicate 1 (fluorescence units) = 1.35e7; resting calcium signal, replicate 2 (fluorescence units) = 1.92e7.
After knock-down of Cpr65Ax2 + Cpr65Ax1 [DRSC10344] the results were calcium entry signal, replicate 1 (fluorescence units) = 2.79e7; calcium entry signal, replicate 2 (fluorescence units) = 4.32e7; resting calcium signal, replicate 1 (fluorescence units) = 1.46e7; resting calcium signal, replicate 2 (fluorescence units) = 1.76e7.
Against CG34136 [DRSC01833] the deposit lists calcium entry signal, replicate 1 (fluorescence units) = 1.66e7; calcium entry signal, replicate 2 (fluorescence units) = 3.24e7; resting calcium signal, replicate 1 (fluorescence units) = 8.01e6; resting calcium signal, replicate 2 (fluorescence units) = 2.74e7.
After knock-down of qkr54B [DRSC07670] the results were calcium entry signal, replicate 1 (fluorescence units) = 4.91e7; calcium entry signal, replicate 2 (fluorescence units) = 5.11e7; resting calcium signal, replicate 1 (fluorescence units) = 2.20e7; resting calcium signal, replicate 2 (fluorescence units) = 2.28e7.
Depletion of CG13196 [DRSC06321] came out at: calcium entry signal, replicate 1 (fluorescence units) = 3.16e7; calcium entry signal, replicate 2 (fluorescence units) = 3.70e7; resting calcium signal, replicate 1 (fluorescence units) = 1.65e7; resting calcium signal, replicate 2 (fluorescence units) = 1.82e7.
For Elba1 [DRSC00276], the values are calcium entry signal, replicate 1 (fluorescence units) = 2.61e7; calcium entry signal, replicate 2 (fluorescence units) = 2.50e7; resting calcium signal, replicate 1 (fluorescence units) = 1.29e7; resting calcium signal, replicate 2 (fluorescence units) = 1.22e7.
rhi [DRSC05996] showed calcium entry signal, replicate 1 (fluorescence units) = 4.65e7; calcium entry signal, replicate 2 (fluorescence units) = 5.46e7; resting calcium signal, replicate 1 (fluorescence units) = 2.09e7; resting calcium signal, replicate 2 (fluorescence units) = 2.51e7.
CG33203 [DRSC14874] scored calcium entry signal, replicate 1 (fluorescence units) = 4.13e7; calcium entry signal, replicate 2 (fluorescence units) = 6.76e7; resting calcium signal, replicate 1 (fluorescence units) = 2.09e7; resting calcium signal, replicate 2 (fluorescence units) = 3.04e7.
Depletion of CG33203 [DRSC14876] resulted in: calcium entry signal, replicate 1 (fluorescence units) = 3.82e7; calcium entry signal, replicate 2 (fluorescence units) = 6.13e7; resting calcium signal, replicate 1 (fluorescence units) = 2.02e7; resting calcium signal, replicate 2 (fluorescence units) = 2.56e7.
For CG33203 [DRSC14877], the entry reads calcium entry signal, replicate 1 (fluorescence units) = 4.02e7; calcium entry signal, replicate 2 (fluorescence units) = 3.55e7; resting calcium signal, replicate 1 (fluorescence units) = 2.06e7; resting calcium signal, replicate 2 (fluorescence units) = 1.77e7.
For CheA29a [DRSC21486] the deposit lists calcium entry signal, replicate 1 (fluorescence units) = 2.30e7; calcium entry signal, replicate 2 (fluorescence units) = 3.56e7; resting calcium signal, replicate 1 (fluorescence units) = 1.22e7; resting calcium signal, replicate 2 (fluorescence units) = 1.56e7.
With knock-down of CG6424 [DRSC05936], the record shows calcium entry signal, replicate 1 (fluorescence units) = 2.77e7; calcium entry signal, replicate 2 (fluorescence units) = 2.54e7; resting calcium signal, replicate 1 (fluorescence units) = 1.43e7; resting calcium signal, replicate 2 (fluorescence units) = 1.26e7.
After knock-down of CG42811 [DRSC15367], the screen gave calcium entry signal, replicate 1 (fluorescence units) = 3.93e7; calcium entry signal, replicate 2 (fluorescence units) = 6.78e7; resting calcium signal, replicate 1 (fluorescence units) = 2.33e7; resting calcium signal, replicate 2 (fluorescence units) = 2.70e7.
Lcp65Ad [DRSC11211] showed calcium entry signal, replicate 1 (fluorescence units) = 2.88e7; calcium entry signal, replicate 2 (fluorescence units) = 5.41e7; resting calcium signal, replicate 1 (fluorescence units) = 1.47e7; resting calcium signal, replicate 2 (fluorescence units) = 2.12e7.
With knock-down of rpr [DRSC11390], the screen gave calcium entry signal, replicate 1 (fluorescence units) = 2.89e7; calcium entry signal, replicate 2 (fluorescence units) = 5.14e7; resting calcium signal, replicate 1 (fluorescence units) = 1.58e7; resting calcium signal, replicate 2 (fluorescence units) = 1.96e7.
With knock-down of lectin-21Cb [DRSC00355], the record shows calcium entry signal, replicate 1 (fluorescence units) = 2.86e7; calcium entry signal, replicate 2 (fluorescence units) = 3.81e7; resting calcium signal, replicate 1 (fluorescence units) = 1.40e7; resting calcium signal, replicate 2 (fluorescence units) = 1.72e7.
